Measured data: PubChem BioAssay AID720505 (Drosophila RNAi Screening Center, 2013)
Purpose: 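Genes needed for store-operated calcium entry in fly cells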 (primary screen). Cells: Drosophila S2R+ cells. Reagents: long dsRNA against Drosophila genes. Conditions: thapsigargin (2 µM) in calcium-free buffer to empty internal stores, then 2 mM calcium added back. Read-out: 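Stores emptied by 2 µM thapsigargin without calcium, then 2 mM calcium re-added; fluo-4 fluorescence followed by FLIPR in 384-well plates, per-well averaged endpoint, raw; two screen passes, some wells retested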. Reading the numbers: calcium signal and retest calcium signal: higher = more calcium entry after store depletion. Active means: 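Knock-downs counted as hits when calcium entry dropped relative to STIM1 positive and Rho1 negative controls present on each plate; roughly 1500 genes called, with reductions of differing size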. Meaning of the calls: active = called as lowering calcium entry; inactive = not called.
In all, the deposit lists about 20,000 reagents; shown is an unselected part of those that have a named target and a result. In the full data, about 2,100 (10%) got an active call. 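Raw plate signals without normalisation; calls rest on control-based scores that were not deposited; replicate 2 separates called from uncalled poorly.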 A number with no mark means an inactive call. The numbers tell different reagents against one gene apart. The record does not give: the amount of reagent, the time to read-out.

The first 3 entries, to show the layout:
CG33284: calcium signal, replicate 1 = 136; calcium signal, replicate 2 = 208
CG7556: calcium signal, replicate 1 = 152; calcium signal, replicate 2 = 133
Etf-QO: calcium signal, replicate 1 = 102; calcium signal, replicate 2 = 108

Main list, from the start:
CG33284: calcium signal, replicate 1 = 136; calcium signal, replicate 2 = 208
CG7556: calcium signal, replicate 1 = 152; calcium signal, replicate 2 = 133
Etf-QO: calcium signal, replicate 1 = 102; calcium signal, replicate 2 = 108
Jhbp4: calcium signal, replicate 1 = 111; calcium signal, replicate 2 = 160
CG34461: calcium signal, replicate 1 = 65.3; calcium signal, replicate 2 = 59.4
CG3434: calcium signal, replicate 1 = 115; calcium signal, replicate 2 = 89.5
CG14631 #1: calcium signal, replicate 1 = 115; calcium signal, replicate 2 = 133
CG14631 #2: calcium signal, replicate 1 = 116; calcium signal, replicate 2 = 183
Or74a: calcium signal, replicate 1 = 36.4 (active); calcium signal, replicate 2 = 124
lambdaTry: calcium signal, replicate 1 = 126; calcium signal, replicate 2 = 212
CG33262: calcium signal, replicate 1 = 95.1; calcium signal, replicate 2 = 181
CG31926: calcium signal, replicate 1 = 180; calcium signal, replicate 2 = 166
nonA-l: calcium signal, replicate 1 = 169; calcium signal, replicate 2 = 132
CG33489: calcium signal, replicate 1 = 120; calcium signal, replicate 2 = 132
hpo: calcium signal, replicate 1 = 143; calcium signal, replicate 2 = 113
Rrp47: calcium signal, replicate 1 = 110; calcium signal, replicate 2 = 121
ND6 (retired record): calcium signal, replicate 1 = 71.5 (active); calcium signal, replicate 2 = 147; retest calcium signal, replicate 1 = 8445; retest calcium signal, replicate 2 = 158
CG13837: calcium signal, replicate 1 = 191; calcium signal, replicate 2 = 166
TwdlY: calcium signal, replicate 1 = 75.7; calcium signal, replicate 2 = 96.4; retest calcium signal, replicate 1 = 104; retest calcium signal, replicate 2 = 79.4
Pgant3: calcium signal, replicate 1 = 193; calcium signal, replicate 2 = 93.6
CG15278: calcium signal, replicate 1 = 63 (active); calcium signal, replicate 2 = 99
CG14421: calcium signal, replicate 1 = 109; calcium signal, replicate 2 = 144
mael: calcium signal, replicate 1 = 102; calcium signal, replicate 2 = 77.5
VhaSFD: calcium signal, replicate 1 = 87.7; calcium signal, replicate 2 = 89
Rpt3: calcium signal, replicate 1 = 60.9 (active); calcium signal, replicate 2 = 83.3
CG8032: calcium signal, replicate 1 = 132; calcium signal, replicate 2 = 178
nxf2: calcium signal, replicate 1 = 65.3 (active); calcium signal, replicate 2 = 105
CG14383: calcium signal, replicate 1 = 92.7; calcium signal, replicate 2 = 85.4
